Measured values from the supplement of paper PMC8728848.
The list shows a part of the results.

Experiments:
Assay in all cases: glycan array binding signal (z-score within array); higher = stronger binding
Settings in all cases: glycan notation: IUPAC condensed, linker removed
Gal3S(b1-4)Glc = molecular target: Gal3S(b1-4)Glc
Method in brief: (§1)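 The binding signal is a Z-score computed within each array. Data were drawn from 3228 arrays in the Consortium for Functional Glycomics database, restricted to those with a known protein sequence. Scores were averaged over arrays of the same protein sequence at different concentrations or buffers, and over linkers, and negative values can be taken as non-binding.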

Gal3S(b1-4)Glc6S = molecular target: Gal3S(b1-4)Glc6S
Method in brief: as §1

Gal3S(b1-4)GlcNAc = molecular target: Gal3S(b1-4)GlcNAc
Method in brief: as §1

[1] = molecular target: Gal3S(b1-4)[Fuc(a1-3)]Glc6S
Method in brief: as §1

[2] = molecular target: Gal3S(b1-4)[Fuc(a1-3)]GlcNAc
Method in brief: as §1

[3] = molecular target: Gal3S(b1-4)[Fuc(a1-3)]GlcNAc6S
Method in brief: as §1

Gal3S4S(b1-4)GlcNAc = molecular target: Gal3S4S(b1-4)GlcNAc
Method in brief: as §1

Gal3S6S(b1-4)GlcNAc = molecular target: Gal3S6S(b1-4)GlcNAc
Method in brief: as §1

Gal3S6S(b1-4)GlcNAc6S = molecular target: Gal3S6S(b1-4)GlcNAc6S
Method in brief: as §1

Gal4S(b1-4)GlcNAc = molecular target: Gal4S(b1-4)GlcNAc
Method in brief: as §1

Gal4S6S(b1-4)GlcNAc = molecular target: Gal4S6S(b1-4)GlcNAc
Method in brief: as §1

Gal6P(b1-4)GlcNAc = molecular target: Gal6P(b1-4)GlcNAc
Method in brief: as §1

Gal6S(b1-3)GlcNAc = molecular target: Gal6S(b1-3)GlcNAc
Method in brief: as §1

Gal6S(b1-3)GlcNAc6S = molecular target: Gal6S(b1-3)GlcNAc6S
Method in brief: as §1

Gal6S(b1-4)Glc = molecular target: Gal6S(b1-4)Glc
Method in brief: as §1

Gal6S(b1-4)Glc6S = molecular target: Gal6S(b1-4)Glc6S
Method in brief: as §1

Gal6S(b1-4)GlcNAc = molecular target: Gal6S(b1-4)GlcNAc
Method in brief: as §1

Gal6S(b1-4)GlcNAc6S = molecular target: Gal6S(b1-4)GlcNAc6S
Method in brief: as §1

GalNAc(a1-3)Gal = molecular target: GalNAc(a1-3)Gal
Method in brief: as §1

GalNAc(a1-3)GalNAc = molecular target: GalNAc(a1-3)GalNAc
Method in brief: as §1

[4] = molecular target: GalNAc(a1-3)GalNAc(a1-3)Gal(a1-4)Gal(b1-4)GlcNAc
Method in brief: as §1

[5] = molecular target: GalNAc(a1-3)GalNAc(b1-3)Gal(a1-4)Gal(b1-4)Glc
Method in brief: as §1

GalNAc(b1-3)Gal = molecular target: GalNAc(b1-3)Gal
Method in brief: as §1

[6] = molecular target: GalNAc(b1-3)Gal(a1-4)Gal(b1-4)GlcNAc
Method in brief: as §1

[7] = molecular target: GalNAc(b1-3)Gal(a1-4)Gal(b1-4)GlcNAc(b1-3)Gal(b1-4)Glc
Method in brief: as §1

[8] = molecular target: GalNAc(b1-3)Gal(a1-6)Gal(b1-4)Glc
Method in brief: as §1

GalNAc(b1-3)GalNAc = molecular target: GalNAc(b1-3)GalNAc
Method in brief: as §1

GalNAc(b1-3)GlcNAc = molecular target: GalNAc(b1-3)GlcNAc
Method in brief: as §1

GalNAc(b1-4)Gal(b1-4)Glc = molecular target: GalNAc(b1-4)Gal(b1-4)Glc
Method in brief: as §1

GalNAc(b1-4)GlcNAc = molecular target: GalNAc(b1-4)GlcNAc
Method in brief: as §1

[9] = molecular target: GalNAc(b1-4)GlcNAc(b1-2)Man
Method in brief: as §1

[10] = molecular target: GalNAc(b1-4)GlcNAc(b1-2)Man(a1-3)[GalNAc(b1-4)GlcNAc(b1-2)Man(a1-6)]Man(b1-4)GlcNAc(b1-4)GlcNAc
Method in brief: as §1

[11] = molecular target: GalNAc(b1-4)GlcNAc(b1-3)GalNAc(b1-4)GlcNAc
Method in brief: as §1

GalNAc(b1-4)GlcNAc6S = molecular target: GalNAc(b1-4)GlcNAc6S
Method in brief: as §1

GalNAc(b1-6)GalNAc = molecular target: GalNAc(b1-6)GalNAc
Method in brief: as §1

GalNAc3S(b1-4)GlcNAc = molecular target: GalNAc3S(b1-4)GlcNAc
Method in brief: as §1

GalNAc3S(b1-4)GlcNAc3S = molecular target: GalNAc3S(b1-4)GlcNAc3S
Method in brief: as §1

[12] = molecular target: GalNAc3S(b1-4)[Fuc(a1-3)]GlcNAc
Method in brief: as §1

GalNAc4S6S(b1-4)GlcNAc = molecular target: GalNAc4S6S(b1-4)GlcNAc
Method in brief: as §1

GalNAc6S(b1-4)GlcNAc = molecular target: GalNAc6S(b1-4)GlcNAc
Method in brief: as §1

Glc(a1-4)Glc = molecular target: Glc(a1-4)Glc
Method in brief: as §1

[13] = molecular target: Glc(a1-4)Glc(a1-4)Glc(a1-4)Glc
Method in brief: as §1

Glc(a1-6)Glc(a1-6)Glc = molecular target: Glc(a1-6)Glc(a1-6)Glc
Method in brief: as §1

[14] = molecular target: Glc(a1-6)Glc(a1-6)Glc(a1-6)Glc
Method in brief: as §1

Glc(b1-4)Glc = molecular target: Glc(b1-4)Glc
Method in brief: as §1

B1: Tp0751, 83732 (protein)
chain: MSYYHHHHHHLESTSLYKKAGFQHGHVPPRRIPPHDTFGALPTAALPSNARDTAAHPSDTADNTSGSSTTTDPRSHGNAPPAPVGGAAQTHTQPPVQTAMRIALWNRATHGEQGALQHLLAGLWIQTEISPNSGDIHPLLFFDREHAEITFSRASVQEIFLVDSAHTHRKTVSFLTRNTAISSIRRRLEVTFESHEVIHVRAVEDVARLKIGSTSMWDGQYTRYHAGPASAPSP
With B1 the “glycan array binding signal (z-score)” value (Gal3S(b1-4)Glc) was 5.83, the “glycan array binding signal (z-score)” value (Gal3S(b1-4)Glc6S) was 0.706 and the “glycan array binding signal (z-score)” value (Gal3S(b1-4)GlcNAc) was -0.267. The “glycan array binding signal (z-score)” value [1] was 0.285, the “glycan array binding signal (z-score)” value [2] was -0.325 and the “glycan array binding signal (z-score)” value [3] was 1.94. The “glycan array binding signal (z-score)” value (Gal3S4S(b1-4)GlcNAc) was 0.248, the “glycan array binding signal (z-score)” value (Gal3S6S(b1-4)GlcNAc) was 0.257 and the “glycan array binding signal (z-score)” value (Gal3S6S(b1-4)GlcNAc6S) was 2.54. For the same binder, the “glycan array binding signal (z-score)” value (Gal4S(b1-4)GlcNAc) was -0.171, the “glycan array binding signal (z-score)” value (Gal4S6S(b1-4)GlcNAc) was 0.22 and the “glycan array binding signal (z-score)” value (Gal6P(b1-4)GlcNAc) was -0.407. The “glycan array binding signal (z-score)” value (Gal6S(b1-3)GlcNAc) was -0.724, the “glycan array binding signal (z-score)” value (Gal6S(b1-3)GlcNAc6S) was 2.18 and the “glycan array binding signal (z-score)” value (Gal6S(b1-4)Glc) was -0.008. The “glycan array binding signal (z-score)” value (Gal6S(b1-4)Glc6S) was 1.12, the “glycan array binding signal (z-score)” value (Gal6S(b1-4)GlcNAc) was -0.379 and the “glycan array binding signal (z-score)” value (Gal6S(b1-4)GlcNAc6S) was 0.444. The “glycan array binding signal (z-score)” value (GalNAc(a1-3)Gal) was -0.699, the “glycan array binding signal (z-score)” value (GalNAc(a1-3)GalNAc) was -0.699 and the “glycan array binding signal (z-score)” value [4] was -0.38. For the same binder, the “glycan array binding signal (z-score)” value [5] was -0.721, the “glycan array binding signal (z-score)” value (GalNAc(b1-3)Gal) was 0.362 and the “glycan array binding signal (z-score)” value [6] was 0.188. The “glycan array binding signal (z-score)” value [7] was -0.654, the “glycan array binding signal (z-score)” value [8] was -0.385 and the “glycan array binding signal (z-score)” value (GalNAc(b1-3)GalNAc) was -0.52. The “glycan array binding signal (z-score)” value (GalNAc(b1-3)GlcNAc) was 0.193, the “glycan array binding signal (z-score)” value (GalNAc(b1-4)Gal(b1-4)Glc) was 0.173 and the “glycan array binding signal (z-score)” value (GalNAc(b1-4)GlcNAc) was 0.591. For the same binder, the “glycan array binding signal (z-score)” value [9] was -0.66, the “glycan array binding signal (z-score)” value [10] was -0.09 and the “glycan array binding signal (z-score)” value [11] was -0.349. The “glycan array binding signal (z-score)” value (GalNAc(b1-4)GlcNAc6S) was -0.636, the “glycan array binding signal (z-score)” value (GalNAc(b1-6)GalNAc) was -0.377 and the “glycan array binding signal (z-score)” value (GalNAc3S(b1-4)GlcNAc) was -0.502. The “glycan array binding signal (z-score)” value (GalNAc3S(b1-4)GlcNAc3S) was -0.623, the “glycan array binding signal (z-score)” value [12] was -0.122 and the “glycan array binding signal (z-score)” value (GalNAc4S6S(b1-4)GlcNAc) was 0.019. For the same binder, the “glycan array binding signal (z-score)” value (GalNAc6S(b1-4)GlcNAc) was -0.223, the “glycan array binding signal (z-score)” value (Glc(a1-4)Glc) was -0.341 and the “glycan array binding signal (z-score)” value [13] was 0.763. The “glycan array binding signal (z-score)” value (Glc(a1-6)Glc(a1-6)Glc) was 0.038, the “glycan array binding signal (z-score)” value [14] was 1.24 and the “glycan array binding signal (z-score)” value (Glc(b1-4)Glc) was -0.041.
